{
  "source": "the supplement of paper PMC8728848",
  "experiment_in_all_cases": "glycan array binding signal (z-score within array); higher = stronger binding",
  "settings_in_all_cases": "glycan notation: IUPAC condensed, linker removed",
  "key": {"[1]": {"target": "Gal(b1-4)GlcNAc(b1-2)Man(a1-3)[Gal(b1-4)GlcNAc(b1-2)Man(a1-6)]Man(b1-4)GlcNAc(b1-4)[Fuc(a1-6)]GlcNAc", "procedure,_shortened": "(§1)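 Glycan array binding is given as a within-array Z-score, which can be read as non-binding when negative. The arrays, 3228 of them, came from the Consortium for Functional Glycomics database and were retained only where the protein sequence was available. Z-scores were averaged across arrays of the same protein sequence at different concentrations or buffers and across linkers.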"}, "[2]": {"target": "Gal(b1-4)GlcNAc(b1-2)Man(a1-3)[Gal(b1-4)GlcNAc(b1-2)Man(a1-6)][Gal(b1-4)GlcNAc(b1-4)]Man(b1-4)GlcNAc(b1-4)[Fuc(a1-6)]GlcNAc", "procedure,_shortened": "as §1"}, "[3]": {"target": "Gal(b1-4)GlcNAc(b1-2)Man(a1-3)[Gal(b1-4)GlcNAc(b1-2)Man(a1-6)][GlcNAc(b1-4)]Man(b1-4)GlcNAc(b1-4)[Fuc(a1-6)]GlcNAc", "procedure,_shortened": "as §1"}, "[4]": {"target": "Gal(b1-4)GlcNAc(b1-2)Man(a1-3)[GlcNAc(b1-2)Man(a1-6)]Man(b1-4)GlcNAc(b1-4)GlcNAc", "procedure,_shortened": "as §1"}, "[5]": {"target": "Gal(b1-4)GlcNAc(b1-2)Man(a1-3)[GlcNAc(b1-4)][Gal(b1-4)GlcNAc(b1-2)Man(a1-6)]Man(b1-4)GlcNAc(b1-4)GlcNAc", "procedure,_shortened": "as §1"}, "[6]": {"target": "Gal(b1-4)GlcNAc(b1-2)Man(a1-3)[Man(a1-6)]Man(b1-4)GlcNAc(b1-4)GlcNAc", "procedure,_shortened": "as §1"}, "[7]": {"target": "Gal(b1-4)GlcNAc(b1-2)Man(a1-6)Man(b1-4)GlcNAc(b1-4)GlcNAc", "procedure,_shortened": "as §1"}, "[8]": {"target": "Gal(b1-4)GlcNAc(b1-2)Man(a1-6)[GlcNAc(b1-2)Man(a1-3)]Man(b1-4)GlcNAc(b1-4)GlcNAc", "procedure,_shortened": "as §1"}, "[9]": {"target": "Gal(b1-4)GlcNAc(b1-2)Man(a1-6)[Man(a1-3)]Man(b1-4)GlcNAc(b1-4)GlcNAc", "procedure,_shortened": "as §1"}, "[10]": {"target": "Gal(b1-4)GlcNAc(b1-2)[Gal(b1-4)GlcNAc(b1-4)]Man(a1-3)[Gal(b1-4)GlcNAc(b1-2)Man(a1-6)]Man(b1-4)GlcNAc(b1-4)GlcNAc", "procedure,_shortened": "as §1"}, "[11]": {"target": "Gal(b1-4)GlcNAc(b1-2)[Gal(b1-4)GlcNAc(b1-4)]Man(a1-3)[Gal(b1-4)GlcNAc(b1-2)[Gal(b1-4)GlcNAc(b1-6)]Man(a1-6)]Man(b1-4)GlcNAc(b1-4)GlcNAc", "procedure,_shortened": "as §1"}, "[12]": {"target": "Gal(b1-4)GlcNAc(b1-2)[Gal(b1-4)GlcNAc(b1-4)]Man(a1-3)[GlcNAc(b1-4)][Gal(b1-4)GlcNAc(b1-2)Man(a1-6)]Man(b1-4)GlcNAc(b1-4)GlcNAc", "procedure,_shortened": "as §1"}, "[13]": {"target": "Gal(b1-4)GlcNAc(b1-2)[Gal(b1-4)GlcNAc(b1-4)]Man(a1-3)[GlcNAc(b1-4)][Gal(b1-4)GlcNAc(b1-2)[Gal(b1-4)GlcNAc(b1-6)]Man(a1-6)]Man(b1-4)GlcNAc(b1-4)GlcNAc", "procedure,_shortened": "as §1"}, "[14]": {"target": "Gal(b1-4)GlcNAc(b1-2)[Gal(b1-4)GlcNAc(b1-6)]Man(a1-6)[Gal(b1-4)GlcNAc(b1-2)Man(a1-3)]Man(b1-4)GlcNAc(b1-4)GlcNAc", "procedure,_shortened": "as §1"}, "[15]": {"target": "Gal(b1-4)GlcNAc(b1-2)[Gal(b1-4)GlcNAc(b1-6)]Man(a1-6)[Gal(b1-4)GlcNAc(b1-2)Man(a1-3)]Man(b1-4)GlcNAc(b1-4)[Fuc(a1-6)]GlcNAc", "procedure,_shortened": "as §1"}, "[16]": {"target": "Gal(b1-4)GlcNAc(b1-2)[Gal(b1-4)GlcNAc(b1-6)]Man(a1-6)[GlcNAc(b1-4)][Gal(b1-4)GlcNAc(b1-2)Man(a1-3)]Man(b1-4)GlcNAc(b1-4)GlcNAc", "procedure,_shortened": "as §1"}, "[17]": {"target": "Gal(b1-4)GlcNAc(b1-2)[Gal(b1-4)GlcNAc(b1-6)]Man(a1-6)[GlcNAc(b1-4)][Gal(b1-4)GlcNAc(b1-2)[Gal(b1-4)GlcNAc(b1-4)]Man(a1-3)]Man(b1-4)GlcNAc(b1-4)[Fuc(a1-6)]GlcNAc", "procedure,_shortened": "as §1"}, "[18]": {"target": "Gal(b1-4)GlcNAc(b1-3)Gal(b1-3)GalNAc", "procedure,_shortened": "as §1"}, "[19]": {"target": "Gal(b1-4)GlcNAc(b1-3)Gal(b1-3)GlcNAc", "procedure,_shortened": "as §1"}},
  "note": "The list shows a part of the results.",
  "data": [
    {"binder": "Epa3to2 (Candida glabrata) (protein) MGSSHHHHHHSSGLVPRGSHMKRELSSQNPFGYPIGCSPQDVAIIPGLTMELYSYPIVSGTPPNCYDASYVDPEYPRTGYLKRKMVGKSTGVTGNLNYKYSVEKACMVKYGNLPAGYNYNEPLTVSNFTMILYGYFKAQTTGLHTFFVNADDLLYINFGAGNAFDCCKREDSKTKLGEYVAYDIWHVDSSKNKVSLFLEKDLYYPIRMFFNNRDNNSSLDLSFSVNGATDQISDFSGYLYSVPDQPDTCPAHIGYDTTCR", "values": [
      {"measurement": "glycan array binding signal (z-score)", "setting": "[1]", "value": 1.25},
      {"measurement": "glycan array binding signal (z-score)", "setting": "[2]", "value": -0.737},
      {"measurement": "glycan array binding signal (z-score)", "setting": "[3]", "value": -1.09},
      {"measurement": "glycan array binding signal (z-score)", "setting": "[4]", "value": -0.998},
      {"measurement": "glycan array binding signal (z-score)", "setting": "[5]", "value": -0.609},
      {"measurement": "glycan array binding signal (z-score)", "setting": "[6]", "value": 0.07},
      {"measurement": "glycan array binding signal (z-score)", "setting": "[7]", "value": 0.844},
      {"measurement": "glycan array binding signal (z-score)", "setting": "[8]", "value": 0.388},
      {"measurement": "glycan array binding signal (z-score)", "setting": "[9]", "value": 0.476},
      {"measurement": "glycan array binding signal (z-score)", "setting": "[10]", "value": -1.88},
      {"measurement": "glycan array binding signal (z-score)", "setting": "[11]", "value": -0.305},
      {"measurement": "glycan array binding signal (z-score)", "setting": "[12]", "value": -1.1},
      {"measurement": "glycan array binding signal (z-score)", "setting": "[13]", "value": 0.856},
      {"measurement": "glycan array binding signal (z-score)", "setting": "[14]", "value": -0.299},
      {"measurement": "glycan array binding signal (z-score)", "setting": "[15]", "value": 0.238},
      {"measurement": "glycan array binding signal (z-score)", "setting": "[16]", "value": -0.786},
      {"measurement": "glycan array binding signal (z-score)", "setting": "[17]", "value": -0.091},
      {"measurement": "glycan array binding signal (z-score)", "setting": "[18]", "value": 0.841},
      {"measurement": "glycan array binding signal (z-score)", "setting": "[19]", "value": -0.865}
    ]}
  ]
}
